According to paper PMC3858360:
No constants are given. Whether binding was seen depends on the method and setting. Each block holds one substance with its values, some of them ahead of it.

Protein sequences, listed by entry. Tags and fused reporters are not part of them. Residues count along the entry.
UniProt Q9NQX4, residues 1355-1742: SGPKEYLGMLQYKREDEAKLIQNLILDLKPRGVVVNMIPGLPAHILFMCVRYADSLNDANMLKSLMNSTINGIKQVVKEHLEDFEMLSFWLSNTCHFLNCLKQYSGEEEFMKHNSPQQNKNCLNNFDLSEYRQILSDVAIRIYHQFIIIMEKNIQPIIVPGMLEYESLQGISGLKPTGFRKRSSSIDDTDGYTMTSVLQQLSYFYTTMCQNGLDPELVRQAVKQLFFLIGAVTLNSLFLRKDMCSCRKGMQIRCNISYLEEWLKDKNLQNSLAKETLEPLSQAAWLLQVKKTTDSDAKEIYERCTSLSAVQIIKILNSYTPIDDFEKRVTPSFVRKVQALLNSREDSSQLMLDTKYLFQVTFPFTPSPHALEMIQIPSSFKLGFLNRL
UniProt Q9ULV0, residues 1462-1848: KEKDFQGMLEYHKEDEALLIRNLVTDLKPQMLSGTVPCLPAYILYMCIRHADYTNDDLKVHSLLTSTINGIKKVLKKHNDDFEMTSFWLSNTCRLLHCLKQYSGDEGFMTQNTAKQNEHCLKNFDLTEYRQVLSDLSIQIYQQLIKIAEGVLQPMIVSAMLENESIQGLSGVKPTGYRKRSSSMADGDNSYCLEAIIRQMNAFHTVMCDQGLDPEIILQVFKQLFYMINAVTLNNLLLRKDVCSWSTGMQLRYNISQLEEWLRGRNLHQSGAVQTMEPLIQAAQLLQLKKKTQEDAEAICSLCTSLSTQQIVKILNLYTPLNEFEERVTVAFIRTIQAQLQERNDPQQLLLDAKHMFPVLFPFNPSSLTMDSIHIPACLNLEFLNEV
UniProt Q9Y4I1, residues 1467-1855: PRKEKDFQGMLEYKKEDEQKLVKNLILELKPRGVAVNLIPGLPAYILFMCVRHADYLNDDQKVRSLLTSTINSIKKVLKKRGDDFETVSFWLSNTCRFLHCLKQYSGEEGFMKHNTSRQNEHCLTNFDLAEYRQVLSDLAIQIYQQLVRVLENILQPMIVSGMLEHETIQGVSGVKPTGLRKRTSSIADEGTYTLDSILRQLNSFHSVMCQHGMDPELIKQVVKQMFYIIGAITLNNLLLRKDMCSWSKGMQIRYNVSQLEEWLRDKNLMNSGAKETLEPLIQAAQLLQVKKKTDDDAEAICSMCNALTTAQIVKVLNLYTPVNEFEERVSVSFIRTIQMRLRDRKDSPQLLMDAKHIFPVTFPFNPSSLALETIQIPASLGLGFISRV

Key:
Test in all cases: SAXS; 1.1 to 14 mg/ml protein in 50 mM Tris pH 7.0 (pH 7.5 for Myo5b and Myo5c GD), 140 mM NaCl, 2 mM DTT, 293 K; both purified
[1] = target: human Myo5c globular domain, Myo5c (1355–1742) (human) (UniProt Q9NQX4)
[2] = target: human Myo5b globular domain, Myo5b (1462–1849) (human) (UniProt Q9ULV0)
[3] = target: human Myo5a globular domain, Myo5a (1467–1855) (human) (UniProt Q9Y4I1)

binding [1]: no binding (tested: 1.1 to 14 mg/ml)
Substance: human Myo5c globular domain, Myo5c (1355–1742) (from UniProt Q9NQX4 1355-1742) (domain or fragment)

binding [2]: no binding (tested: 1.1 to 14 mg/ml)
Substance: human Myo5b globular domain, Myo5b (1462–1849) (from UniProt Q9ULV0 1462-1848) (domain or fragment)

binding [3]: no binding (tested: 1.1 to 14 mg/ml)
Substance: human Myo5a globular domain, Myo5a (1467–1855) (from UniProt Q9Y4I1 1467-1855) (domain or fragment)
